Measured values reported in patent publication US7220755B2, “42-O-alkoxyalkyl rapamycin derivatives and compositions comprising same” (Biosensors International Group, Ltd., priority 2003, dated 2007).

Test system: pig coronary artery (restenosis after overstretch injury)
Experiment: Pig coronary artery overstretch injury model with drug-eluting stents
Assay type: in vivo
Experimental: In another study, stents carrying 42-O-(2-ethoxyethyl) rapamycin in the form of a polymer (poly-dl-lactic acid) coating were prepared for insertion into pigs with a vessel overstretch injury to the coronary artery. Comparative and control stents includes bare metal stents, stents having a polymer coating of poly-dl-lactic acid absent drug, stents carrying rapamycin in a poly-dl-lactic acid polymer coating, and stents carrying everolimus in a poly-dl-lactic acid polymer coating. The stents were inserted into vessels which seriously injured (averaging approximately 36% overstretch injury of the vessel) using an angioplasty balloon. […] In this way, it was possible to assess the relative effectiveness of the various test compounds presented to the vessels on the same metal stent/polymer platform. At the time of insertion, the extent of overstretch was recorded as a percent balloon/artery (B/A) ratio.

[1] = high dose, drug load 325 μg, polymer coat 1300 μg, 28 days
[2] = low dose, drug load 180 μg, polymer coat 1300 μg

`CO[C@H]1C[C@@H]2CC[C@@H](C)[C@@](O)(O2)C(=O)C(=O)N2CCCC[C@H]2C(=O)O[C@H]([C@H](C)C[C@@H]2CC[C@@H](OCCO)[C@H](OC)C2)CC(=O)[C@H](C)/C=C(\C)[C@@H](O)[C@@H](OC)C(=O)[C@H](C)C[C@H](C)/C=C/C=C/C=C/1C` [everolimus] was tested, and the “Average Injury score” value (high dose, drug load 325 μg, polymer coat 1300 μg, 6 months) was 2.67, the “Average Injury score” value [1] was 1.89 and the “Average Injury score” value [2] was 2.10. For the same compound, the “Average Injury score” value (med. dose, drug load 275 μg, polymer coat 640–780 μg) was 2.13.
In the case of `CCOCCO[C@@H]1CC[C@@H](C[C@@H](C)[C@@H]2CC(=O)[C@H](C)/C=C(\C)[C@@H](O)[C@@H](OC)C(=O)[C@H](C)C[C@H](C)/C=C/C=C/C=C(\C)[C@@H](OC)C[C@@H]3CC[C@@H](C)[C@@](O)(O3)C(=O)C(=O)N3CCCC[C@H]3C(=O)O2)C[C@H]1OC` [42-O-(2-ethoxyethyl) rapamycin], the “Average Injury score” value (drug load 225 μg, polymer coat 225 μg, stent length 15 mm) is reported as 1.29.
`CO[C@H]1C[C@@H]2CC[C@@H](C)[C@@](O)(O2)C(=O)C(=O)N2CCCC[C@H]2C(=O)O[C@H]([C@H](C)C[C@@H]2CC[C@@H](O)[C@H](OC)C2)CC(=O)[C@H](C)/C=C(\C)[C@@H](O)[C@@H](OC)C(=O)[C@H](C)C[C@H](C)/C=C/C=C/C=C/1C` [rapamycin] was tested, and the “Average Injury score” value [1] was 2.10 and the “Average Injury score” value [2] was 1.90.
